Experimental findings from ChEMBL document CHEMBL5380782, “Design, Biological Evaluation, and Computer-Aided Analysis of Dihydrothiazepines as Selective Antichlamydial Agents” (J Med Chem, 2023) are described below.

This assay deals with Candida albicans. Nature of the assay: Antimicrobial activity against Candida albicans 90028 assessed as microbial growth inhibition by broth microdilution method. The assay is classed as functional.

Converted amounts (≈) assume the structure as drawn.

On to `OC(Cn1cncn1)(Cn1cncn1)c1ccc(F)cc1F` [FLUCONAZOLE], for which the MIC (in general, the smallest concentration in the dilution series that meets the test's criterion for growth inhibition) stood at 1 µg/mL (≈ 3.27 µM).
